From paper PMC9376731
No constants are given. Whether binding was seen depends on the method and setting. In cells and extracts the contact can be indirect. Here binding means that the protein was enriched with, or labelled near, the bait; the list need not be complete.

T1: fidgetin (mouse (endogenous in mouse oocytes)) (UniProt Q9ERZ6)
T1 sequence: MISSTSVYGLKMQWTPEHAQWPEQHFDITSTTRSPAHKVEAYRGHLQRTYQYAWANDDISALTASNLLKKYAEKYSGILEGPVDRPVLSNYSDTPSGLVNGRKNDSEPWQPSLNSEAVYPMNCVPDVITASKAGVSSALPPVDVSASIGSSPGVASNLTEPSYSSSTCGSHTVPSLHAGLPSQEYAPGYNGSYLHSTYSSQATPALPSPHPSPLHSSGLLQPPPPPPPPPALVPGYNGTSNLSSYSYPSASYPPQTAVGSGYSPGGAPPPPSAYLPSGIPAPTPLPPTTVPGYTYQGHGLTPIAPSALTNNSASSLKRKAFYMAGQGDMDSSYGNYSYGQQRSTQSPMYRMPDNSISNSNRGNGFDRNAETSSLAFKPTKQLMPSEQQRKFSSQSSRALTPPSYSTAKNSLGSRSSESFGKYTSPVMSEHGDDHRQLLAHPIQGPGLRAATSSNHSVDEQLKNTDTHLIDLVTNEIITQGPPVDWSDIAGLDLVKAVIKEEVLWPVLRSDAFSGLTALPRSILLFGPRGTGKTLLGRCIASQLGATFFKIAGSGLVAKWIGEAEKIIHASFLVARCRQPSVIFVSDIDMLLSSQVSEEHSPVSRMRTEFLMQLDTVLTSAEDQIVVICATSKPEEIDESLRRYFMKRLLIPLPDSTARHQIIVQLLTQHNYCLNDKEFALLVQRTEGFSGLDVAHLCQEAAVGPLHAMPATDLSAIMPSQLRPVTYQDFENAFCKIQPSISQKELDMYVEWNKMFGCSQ

B1: ZP1 (protein, UniProt Q62005 21-546)
chain: QRLHLEPGFEYSYDCGVRGMQLLVFPRPNQTVQFKVLDEFGNRFEVNNCSICYHWVTSEAQEHTVFSADYKGCHVLEKDGRFHLRVFIQAVLPNGRVDIAQDVTLICPKPDHTVTPDPYLAPPTTPEPFTPHAFALHPIPDHTLAGSGHTGLTTLYPEQSFIHPTPAPPSLGPGPAGSTVPHSQWGTLEPWELTELDSVGTHLPQERCQVASGHIPCMVNGSSKETCQQAGCCYDSTKEEPCYYGNTVTLQCFKSGYFTLVMSQETALTHGVLLDNVHLAYAPNGCPPTQKTSAFVVFHVPLTLCGTAIQVVGEQLIYENQLVSDIDVQKGPQGSITRDSAFRLHVRCIFNASDFLPIQASIFSPQPPAPVTQSGPLRLELRIATDKTFSSYYQGSDYPLVRLLREPVYVEVRLLQRTDPSLVLVLHQCWATPTTSPFEQPQWPILSDGCPFKGDNYRTQVVAADREALPFWSHYQRFTITTFMLLDSSSQNALRGQVYFFCSASACHPLGSDTCSTTCDSGIARR
B2: ZP2 (protein, UniProt P20239 35-633)
chain: VSLPQSENPAFPGTLICDKDEVRIEFSSRFDMEKWNPSVVDTLGSEILNCTYALDLERFVLKFPYETCTIKVVGGYQVNIRVGDTTTDVRYKDDMYHFFCPAIQAETHEISEIVVCRRDLISFSFPQLFSRLADENQNVSEMGWIVKIGNGTRAHILPLKDAIVQGFNLLIDSQKVTLHVPANATGIVHYVQESSYLYTVQLELLFSTTGQKIVFSSHAICAPDLSVACNATHMTLTIPEFPGKLESVDFGQWSIPEDQWHANGIDKEATNGLRLNFRKSLLKTKPSEKCPFYQFYLSSLKLTFYFQGNMLSTVIDPECHCESPVSIDELCAQDGFMDFEVYSHQTKPALNLDTLLVGNSSCQPIFKVQSVGLARFHIPLNGCGTRQKFEGDKVIYENEIHALWENPPSNIVFRNSEFRMTVRCYYIRDSMLLNAHVKGHPSPEAFVKPGPLVLVLQTYPDQSYQRPYRKDEYPLVRYLRQPIYMEVKVLSRNDPNIKLVLDDCWATSSEDPASAPQWQIVMDGCEYELDNYRTTFHPAGSSAAHSGHYQRFDVKTFAFVSEARGLSSLIYFHCSALICNQVSLDSPLCSVTCPASLRS
B3: ZP3 (protein, UniProt P10761 23-351)
chain: QTLWLLPGGTPTPVGSSSPVKVECLEAELVVTVSRDLFGTGKLVQPGDLTLGSEGCQPRVSVDTDVVRFNAQLHECSSRVQMTKDALVYSTFLLHDPRPVSGLSILRTNRVEVPIECRYPRQGNVSSHPIQPTWVPFRATVSSEEKLAFSLRLMEENWNTEKSAPTFHLGEVAHLQAEVQTGSHLPLQLFVDHCVATPSPLPDPNSSPYHFIVDFHGCLVDGLSESFSAFQVPRPRPETLQFTVDVFHFANSSRNTLYITCHLKVAPANQIPDKLNKACSFNKTSQSWLPVEGDADICDCCSHGNCSNSSSSQFQIHGPRQWSKLVSRN
B4: fidgetin-like 1 (protein, UniProt Q8BPY9 1-683)
chain: METSSSMSVETTRSVQVDEWQKNYCVVTSSICTPKQKADAYRALLLHIQYAYANSEISQVFATNLFKRYTEKYSAIIDSDNVVTGLNNYAESIFALAGSRQADSNKWQSGLSIDNVFKMSCVQEMMQAGKKFEESLLEPADASVVLCKEPTAFEVPQLSVCGGSEDADILSSSGHDTDKTQAIPGSSLRCSPFQSARLPKETNTTKTCLTSSTSLGESATAAFHMTPLFGNTEKDTQSFPKTSTGLNMFLSNLSCVPSGCENPQERKAFNDSDIIDILSNPTLNKAPSKTEDRGRREDNSLPTFKTAKEQLWVDQKKKGHQSQHTSKSSNGVMKKSLGAGRSRGIFGKFVPPVSNKQDGSEQHAKKHKSSRAGSAEPAHLTDDCLKNVEPRMVELIMNEIMDHGPPVHWDDIAGVEFAKATIKEIVVWPMMRPDIFTGLRGPPKGILLFGPPGTGKTLIGKCIASQSGATFFSISASSLTSKWVGEGEKMVRALFAVARCQQPAVIFIDEIDSLLSQRGDGEHESSRRIKTEFLVQLDGATTSSEDRILVVGATNRPQEIDEAARRRLVKRLYIPLPEASARKQIVGNLMSKEQCCLSDEETDLVVQQSDGFSGADMTQLCREASLGPIRSLHAADIATISPDQVRPIAYIDFENAFKTVRPTVSPKDLELYENWNETFGCGK

Target: T1, fidgetin (mouse (endogenous in mouse oocytes))
Assay: affinity purification with mass spectrometry; immunoprecipitation from lysate of 600 mouse oocytes with rabbit anti-fidgetin antibody on protein-A/G beads, beside control rabbit IgG; SDS-PAGE, silver staining, gel regions cut and sent for LC-MS

**Q.** For B1, which binding is on record?
**A.** The binding was “binds”.

**Q.** Which binding does the source give for B2 here?
**A.** Its binding is “binds”.

**Q.** Which binding does the source give for B3 here?
**A.** Its binding is “binds”.

**Q.** Which binding does the source give for B4 here?
**A.** The binding was “binds”.
